Patent US6475744 (GENERAL HOSPITAL CORPORATION A MASSACHUSETTS, dated 2002)
Read-outs that look alike come from different tables or passages of the source. No constants are given. Whether binding was seen depends on the method and setting. For some of these results: Binding seen in cells or lysates may run through a third protein. Some entries that bind do so weakly or less than the wild type. For some of these results: Tags and fused reporters may be left off the sequences shown. Each block holds one molecule with its values, some of them ahead of it.

Sequences of proteins named here, by UniProt entry; tags and fusion partners are left off.
UniProt O54943: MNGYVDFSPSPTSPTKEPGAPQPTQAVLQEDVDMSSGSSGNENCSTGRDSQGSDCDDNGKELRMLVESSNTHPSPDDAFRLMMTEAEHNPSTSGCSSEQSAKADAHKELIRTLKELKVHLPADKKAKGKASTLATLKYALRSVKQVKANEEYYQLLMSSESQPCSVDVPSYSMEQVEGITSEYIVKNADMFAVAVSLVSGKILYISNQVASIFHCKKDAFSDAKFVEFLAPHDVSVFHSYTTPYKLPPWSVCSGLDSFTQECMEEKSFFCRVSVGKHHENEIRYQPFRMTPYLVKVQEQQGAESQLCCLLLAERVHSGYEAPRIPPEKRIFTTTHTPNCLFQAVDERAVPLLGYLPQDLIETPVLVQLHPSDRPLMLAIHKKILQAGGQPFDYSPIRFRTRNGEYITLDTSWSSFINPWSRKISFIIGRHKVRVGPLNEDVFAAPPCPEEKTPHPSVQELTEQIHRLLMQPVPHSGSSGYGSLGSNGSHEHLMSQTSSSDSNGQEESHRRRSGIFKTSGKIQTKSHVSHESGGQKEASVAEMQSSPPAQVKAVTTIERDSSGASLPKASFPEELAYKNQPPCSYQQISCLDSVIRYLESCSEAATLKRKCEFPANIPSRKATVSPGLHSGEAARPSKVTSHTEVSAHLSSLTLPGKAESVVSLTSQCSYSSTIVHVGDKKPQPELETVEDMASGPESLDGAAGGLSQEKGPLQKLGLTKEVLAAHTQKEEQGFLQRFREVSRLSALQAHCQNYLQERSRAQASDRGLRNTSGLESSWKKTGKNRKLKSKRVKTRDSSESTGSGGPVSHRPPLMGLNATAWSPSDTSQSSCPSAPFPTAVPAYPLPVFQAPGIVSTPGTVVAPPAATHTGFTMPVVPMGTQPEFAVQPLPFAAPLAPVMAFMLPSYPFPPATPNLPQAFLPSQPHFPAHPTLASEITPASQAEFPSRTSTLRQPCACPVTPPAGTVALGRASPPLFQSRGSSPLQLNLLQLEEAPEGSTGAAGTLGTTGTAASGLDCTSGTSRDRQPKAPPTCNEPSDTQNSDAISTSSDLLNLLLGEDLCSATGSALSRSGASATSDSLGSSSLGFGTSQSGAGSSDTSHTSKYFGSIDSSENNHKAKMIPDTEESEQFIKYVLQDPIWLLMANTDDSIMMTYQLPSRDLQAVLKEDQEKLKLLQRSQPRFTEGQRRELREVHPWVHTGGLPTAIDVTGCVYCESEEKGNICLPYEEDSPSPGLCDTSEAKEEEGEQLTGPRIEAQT
UniProt O35973: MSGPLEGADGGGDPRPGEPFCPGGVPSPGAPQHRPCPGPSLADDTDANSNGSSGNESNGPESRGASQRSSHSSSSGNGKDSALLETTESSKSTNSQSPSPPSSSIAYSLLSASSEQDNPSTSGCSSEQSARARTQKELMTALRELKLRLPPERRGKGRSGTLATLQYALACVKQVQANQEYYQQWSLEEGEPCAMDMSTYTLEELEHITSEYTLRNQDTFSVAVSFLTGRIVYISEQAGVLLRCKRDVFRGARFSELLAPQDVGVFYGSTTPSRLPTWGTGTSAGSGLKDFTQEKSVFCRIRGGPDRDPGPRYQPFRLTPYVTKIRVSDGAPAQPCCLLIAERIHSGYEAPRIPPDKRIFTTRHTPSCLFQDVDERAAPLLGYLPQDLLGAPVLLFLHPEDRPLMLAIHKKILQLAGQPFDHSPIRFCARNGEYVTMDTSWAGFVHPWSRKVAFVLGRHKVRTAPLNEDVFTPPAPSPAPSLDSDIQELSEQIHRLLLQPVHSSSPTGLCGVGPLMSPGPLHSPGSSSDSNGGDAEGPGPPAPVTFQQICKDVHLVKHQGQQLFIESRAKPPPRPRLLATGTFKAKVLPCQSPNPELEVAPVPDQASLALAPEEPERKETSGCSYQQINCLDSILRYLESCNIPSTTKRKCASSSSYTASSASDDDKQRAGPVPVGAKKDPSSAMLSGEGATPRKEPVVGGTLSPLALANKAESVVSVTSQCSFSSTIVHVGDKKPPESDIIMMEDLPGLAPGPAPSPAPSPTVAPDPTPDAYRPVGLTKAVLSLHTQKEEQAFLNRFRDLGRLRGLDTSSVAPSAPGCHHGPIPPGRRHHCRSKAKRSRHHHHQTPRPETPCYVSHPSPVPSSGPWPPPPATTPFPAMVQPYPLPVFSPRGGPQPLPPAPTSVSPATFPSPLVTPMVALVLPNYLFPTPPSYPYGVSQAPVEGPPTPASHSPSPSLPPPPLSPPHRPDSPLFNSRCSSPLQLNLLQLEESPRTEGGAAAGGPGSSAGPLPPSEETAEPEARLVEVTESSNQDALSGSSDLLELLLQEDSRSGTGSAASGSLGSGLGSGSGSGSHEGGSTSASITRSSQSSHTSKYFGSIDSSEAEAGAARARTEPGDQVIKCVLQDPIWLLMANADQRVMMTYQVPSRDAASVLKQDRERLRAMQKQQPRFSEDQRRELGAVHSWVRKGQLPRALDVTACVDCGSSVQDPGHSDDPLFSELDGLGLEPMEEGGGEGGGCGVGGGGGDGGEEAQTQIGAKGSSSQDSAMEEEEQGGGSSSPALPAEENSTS

What was measured:
mPER2-V5 (mouse) [1] = target: mPER2-V5 (mouse) (UniProt O54943); assay: co-immunoprecipitation from co-transfected COS7 cells, anti-HA IP, anti-V5 blot
mPER3-V5 (mouse) [2] = target: T1, mPER3-V5 (mouse) (UniProt O70361); assay: as above
T1 sequence (looked up): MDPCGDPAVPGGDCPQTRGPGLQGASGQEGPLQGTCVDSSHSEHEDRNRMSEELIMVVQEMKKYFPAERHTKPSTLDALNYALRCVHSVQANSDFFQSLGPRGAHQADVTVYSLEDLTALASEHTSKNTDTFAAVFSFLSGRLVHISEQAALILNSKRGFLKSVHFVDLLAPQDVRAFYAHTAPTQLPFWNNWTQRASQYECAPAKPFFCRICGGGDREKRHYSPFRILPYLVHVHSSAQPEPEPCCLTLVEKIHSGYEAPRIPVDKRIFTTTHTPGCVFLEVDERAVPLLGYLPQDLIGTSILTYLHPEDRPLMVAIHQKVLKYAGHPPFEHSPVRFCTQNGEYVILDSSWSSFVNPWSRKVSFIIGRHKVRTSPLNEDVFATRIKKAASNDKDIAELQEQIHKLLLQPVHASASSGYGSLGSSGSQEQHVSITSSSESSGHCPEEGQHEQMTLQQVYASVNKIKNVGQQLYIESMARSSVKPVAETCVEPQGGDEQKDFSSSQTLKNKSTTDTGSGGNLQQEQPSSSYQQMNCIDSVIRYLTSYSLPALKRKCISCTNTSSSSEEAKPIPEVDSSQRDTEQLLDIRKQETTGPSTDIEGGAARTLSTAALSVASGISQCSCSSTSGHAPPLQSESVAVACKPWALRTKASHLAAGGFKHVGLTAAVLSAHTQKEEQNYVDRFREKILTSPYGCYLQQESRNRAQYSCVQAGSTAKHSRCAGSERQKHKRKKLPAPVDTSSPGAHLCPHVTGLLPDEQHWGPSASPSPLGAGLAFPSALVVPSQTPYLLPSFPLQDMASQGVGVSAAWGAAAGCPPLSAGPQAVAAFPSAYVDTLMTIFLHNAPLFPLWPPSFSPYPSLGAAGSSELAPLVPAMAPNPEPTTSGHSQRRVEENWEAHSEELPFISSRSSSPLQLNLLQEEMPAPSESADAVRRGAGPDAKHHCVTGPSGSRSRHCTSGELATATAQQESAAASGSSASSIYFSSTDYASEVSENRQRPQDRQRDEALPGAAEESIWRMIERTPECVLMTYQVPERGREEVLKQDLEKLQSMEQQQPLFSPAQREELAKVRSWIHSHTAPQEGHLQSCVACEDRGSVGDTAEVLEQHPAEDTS

mPER1-V5 (mouse) [3] = target: mPER1-V5 (mouse) (UniProt O35973); assay: as above
CYC (Drosophila) = target: T2, CYC (Drosophila) (UniProt O61734); assay: yeast two-hybrid
T2 sequence (looked up): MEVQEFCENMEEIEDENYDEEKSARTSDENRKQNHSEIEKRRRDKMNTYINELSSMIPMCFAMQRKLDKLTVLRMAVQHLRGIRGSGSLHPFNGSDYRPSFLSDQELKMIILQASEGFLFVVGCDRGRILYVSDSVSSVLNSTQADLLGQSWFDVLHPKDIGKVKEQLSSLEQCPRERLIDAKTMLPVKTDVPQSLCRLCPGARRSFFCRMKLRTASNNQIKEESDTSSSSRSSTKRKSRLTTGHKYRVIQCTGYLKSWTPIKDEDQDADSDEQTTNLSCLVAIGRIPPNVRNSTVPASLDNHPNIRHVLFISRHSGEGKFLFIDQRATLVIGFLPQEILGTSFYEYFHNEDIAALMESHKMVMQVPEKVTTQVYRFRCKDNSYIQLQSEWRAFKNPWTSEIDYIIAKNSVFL

mPER2-V5 (mouse) [4] = target: mPER2-V5 (mouse) (UniProt O54943); assay: co-immunoprecipitation from co-transfected COS7 cells, anti-HA IP, anti-V5 blot; remark: listed apart in the source
mPER3-V5 (mouse) [5] = target: T1, mPER3-V5 (mouse); assay: as above; remark: listed apart in the source
mPER1-V5 (mouse) [6] = target: mPER1-V5 (mouse) (UniProt O35973); assay: as above; remark: listed apart in the source

binding (mPER2-V5 (mouse) [1]): binds
binding (mPER3-V5 (mouse) [2]): binds
binding (mPER1-V5 (mouse) [3]): binds
Molecule: mPER1-HA (from UniProt O35973 1-1291)

binding (CYC (Drosophila)): binds
B1: mCLOCK (other, mouse, UniProt O08785 1-855, looked up)
chain: MVFTVSCSKMSSIVDRDDSSIFDGLVEEDDKDKAKRVSRNKSEKKRRDQFNVLIKELGSMLPGNARKMDKSTVLQKSIDFLRKHKETTAQSDASEIRQDWKPTFLSNEEFTQLMLEALDGFFLAIMTDGSIIYVSESVTSLLEHLPSDLVDQSIFNFIPEGEHSEVYKILSTHLLESDSLTPEYLKSKNQLEFCCHMLRGTIDPKEPSTYEYVRFIGNFKSLTSVSTSTHNGFEGTIQRTHRPSYEDRVCFVATVRLATPQFIKEMCTVEEPNEEFTSRHSLEWKFLFLDHRAPPIIGYLPFEVLGTSGYDYYHVDDLENLAKCHEHLMQYGKGKSCYYRFLTKGQQWIWLQTHYYITYHQWNSRPEFIVCTHTVVSYAEVRAERRRELGIEESLPETAADKSQDSGSDNRINTVSLKEALERFDHSPTPSASSRSSRKSSHTAVSDPSSTPTKIPTDTSTPPRQHLPAHEKMTQRRSSFSSQSINSQSVGPSLTQPAMSQAANLPIPQGMSQFQFSAQLGAMQHLKDQLEQRTRMIEANIHRQQEELRKIQEQLQMVHGQGLQMFLQQSNPGLNFGSVQLSSGNSNIQQLTPVNMQGQVVPANQVQSGHISTGQHMIQQQTLQSTSTQQSQQSVMSGHSQQTSLPSQTPSTLTAPLYNTMVISQPAAGSMVQIPSSMPQNSTQSATVTTFTQDRQIRFSQGQQLVTKLVTAPVACGAVMVPSTMLMGQVVTAYPTFATQQQQAQTLSVTQQQQQQQQQPPQQQQQQQQSSQEQQLPSVQQPAQAQLGQPPQQFLQTSRLLHGNPSTQLILSAAFPLQQSTFPPSHHQQHQPQQQQQLPRHRTDSLTDPSKVQPQ

binding (mPER2-V5 (mouse) [4]): binds
binding (mPER3-V5 (mouse) [5]): binds
binding (mPER1-V5 (mouse) [6]): binds
B2: mPER3-HA (other, mouse, UniProt O70361 1-1113, looked up, not shown: small tags and cut ends)
chain: MDPCGDPAVPGGDCPQTRGPGLQGASGQEGPLQGTCVDSSHSEHEDRNRMSEELIMVVQEMKKYFPAERHTKPSTLDALNYALRCVHSVQANSDFFQSLGPRGAHQADVTVYSLEDLTALASEHTSKNTDTFAAVFSFLSGRLVHISEQAALILNSKRGFLKSVHFVDLLAPQDVRAFYAHTAPTQLPFWNNWTQRASQYECAPAKPFFCRICGGGDREKRHYSPFRILPYLVHVHSSAQPEPEPCCLTLVEKIHSGYEAPRIPVDKRIFTTTHTPGCVFLEVDERAVPLLGYLPQDLIGTSILTYLHPEDRPLMVAIHQKVLKYAGHPPFEHSPVRFCTQNGEYVILDSSWSSFVNPWSRKVSFIIGRHKVRTSPLNEDVFATRIKKAASNDKDIAELQEQIHKLLLQPVHASASSGYGSLGSSGSQEQHVSITSSSESSGHCPEEGQHEQMTLQQVYASVNKIKNVGQQLYIESMARSSVKPVAETCVEPQGGDEQKDFSSSQTLKNKSTTDTGSGGNLQQEQPSSSYQQMNCIDSVIRYLTSYSLPALKRKCISCTNTSSSSEEAKPIPEVDSSQRDTEQLLDIRKQETTGPSTDIEGGAARTLSTAALSVASGISQCSCSSTSGHAPPLQSESVAVACKPWALRTKASHLAAGGFKHVGLTAAVLSAHTQKEEQNYVDRFREKILTSPYGCYLQQESRNRAQYSCVQAGSTAKHSRCAGSERQKHKRKKLPAPVDTSSPGAHLCPHVTGLLPDEQHWGPSASPSPLGAGLAFPSALVVPSQTPYLLPSFPLQDMASQGVGVSAAWGAAAGCPPLSAGPQAVAAFPSAYVDTLMTIFLHNAPLFPLWPPSFSPYPSLGAAGSSELAPLVPAMAPNPEPTTSGHSQRRVEENWEAHSEELPFISSRSSSPLQLNLLQEEMPAPSESADAVRRGAGPDAKHHCVTGPSGSRSRHCTSGELATATAQQESAAASGSSASSIYFSSTDYASEVSENRQRPQDRQRDEALPGAAEESIWRMIERTPECVLMTYQVPERGREEVLKQDLEKLQSMEQQQPLFSPAQREELAKVRSWIHSHTAPQEGHLQSCVACEDRGSVGDTAEVLEQHPAEDTS
notes: Expressed in COS7 cells from pcDNA 3.1; immunoprecipitated with anti-HA antibody
